Measured values taken from the supplement of paper PMC10849652.
This is one part of the list. Residues, ends and D or L forms follow the SMILES beside them. *: point of attachment. Cbz = O=C(OCc1ccccc1)*

Protein sequences, listed by entry. Tags and fused reporters are not part of them. Lines headed by an entry give the natural chain unless they say otherwise; changes in a name come on top.
UniProt Q13459: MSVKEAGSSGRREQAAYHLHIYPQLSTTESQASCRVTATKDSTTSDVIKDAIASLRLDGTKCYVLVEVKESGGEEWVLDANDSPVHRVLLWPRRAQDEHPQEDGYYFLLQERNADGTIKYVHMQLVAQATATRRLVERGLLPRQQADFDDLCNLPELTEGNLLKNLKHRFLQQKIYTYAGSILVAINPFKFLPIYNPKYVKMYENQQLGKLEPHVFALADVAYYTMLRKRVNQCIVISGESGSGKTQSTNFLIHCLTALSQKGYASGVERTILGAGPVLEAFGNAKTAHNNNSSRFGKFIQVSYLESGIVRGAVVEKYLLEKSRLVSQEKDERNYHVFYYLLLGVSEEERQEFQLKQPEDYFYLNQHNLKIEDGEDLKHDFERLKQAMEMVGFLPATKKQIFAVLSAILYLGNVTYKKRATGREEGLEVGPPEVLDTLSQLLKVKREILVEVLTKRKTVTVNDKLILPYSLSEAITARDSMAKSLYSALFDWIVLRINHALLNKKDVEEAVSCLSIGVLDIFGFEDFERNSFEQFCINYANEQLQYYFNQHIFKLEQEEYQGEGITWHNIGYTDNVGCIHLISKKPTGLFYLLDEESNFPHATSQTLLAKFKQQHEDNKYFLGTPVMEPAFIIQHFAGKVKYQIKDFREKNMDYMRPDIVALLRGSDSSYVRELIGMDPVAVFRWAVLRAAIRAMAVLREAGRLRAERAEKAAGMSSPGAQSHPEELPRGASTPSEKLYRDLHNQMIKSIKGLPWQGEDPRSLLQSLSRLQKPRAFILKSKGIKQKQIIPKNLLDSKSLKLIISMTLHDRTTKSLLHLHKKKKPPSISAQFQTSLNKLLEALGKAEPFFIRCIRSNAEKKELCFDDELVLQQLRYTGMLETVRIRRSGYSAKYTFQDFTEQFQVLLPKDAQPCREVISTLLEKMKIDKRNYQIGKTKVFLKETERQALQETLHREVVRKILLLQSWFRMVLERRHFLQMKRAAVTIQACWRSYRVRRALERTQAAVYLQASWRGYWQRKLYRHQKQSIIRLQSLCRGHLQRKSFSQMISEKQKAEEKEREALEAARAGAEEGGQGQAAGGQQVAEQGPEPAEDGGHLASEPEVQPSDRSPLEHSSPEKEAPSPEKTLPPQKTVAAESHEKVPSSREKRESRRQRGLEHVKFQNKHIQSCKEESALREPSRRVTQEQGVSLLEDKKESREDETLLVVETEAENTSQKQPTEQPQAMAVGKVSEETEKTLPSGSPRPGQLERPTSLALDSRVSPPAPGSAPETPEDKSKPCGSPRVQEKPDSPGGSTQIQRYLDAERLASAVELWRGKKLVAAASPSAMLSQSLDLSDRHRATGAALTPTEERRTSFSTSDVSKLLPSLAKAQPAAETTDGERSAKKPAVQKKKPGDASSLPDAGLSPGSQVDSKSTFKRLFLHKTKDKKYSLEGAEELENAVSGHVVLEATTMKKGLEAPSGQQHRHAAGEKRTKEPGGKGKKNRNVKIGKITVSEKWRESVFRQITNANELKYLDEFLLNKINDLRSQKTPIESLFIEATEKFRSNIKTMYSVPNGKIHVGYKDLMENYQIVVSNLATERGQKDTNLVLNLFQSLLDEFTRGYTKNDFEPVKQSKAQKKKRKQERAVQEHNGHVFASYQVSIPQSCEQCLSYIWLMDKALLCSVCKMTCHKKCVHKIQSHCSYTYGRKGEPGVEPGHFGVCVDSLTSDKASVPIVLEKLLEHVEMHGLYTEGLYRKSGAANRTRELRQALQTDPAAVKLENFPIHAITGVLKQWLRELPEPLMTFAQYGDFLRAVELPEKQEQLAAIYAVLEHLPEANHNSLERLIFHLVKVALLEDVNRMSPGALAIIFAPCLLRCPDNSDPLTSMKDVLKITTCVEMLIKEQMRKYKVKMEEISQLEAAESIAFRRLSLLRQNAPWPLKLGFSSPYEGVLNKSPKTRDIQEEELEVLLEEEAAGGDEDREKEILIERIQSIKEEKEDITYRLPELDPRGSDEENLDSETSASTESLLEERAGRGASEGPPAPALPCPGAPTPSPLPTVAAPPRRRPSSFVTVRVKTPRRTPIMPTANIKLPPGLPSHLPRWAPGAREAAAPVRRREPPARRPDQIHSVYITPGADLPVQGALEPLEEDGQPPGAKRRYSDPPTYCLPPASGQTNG
UniProt Q14686, whole entry, looked up: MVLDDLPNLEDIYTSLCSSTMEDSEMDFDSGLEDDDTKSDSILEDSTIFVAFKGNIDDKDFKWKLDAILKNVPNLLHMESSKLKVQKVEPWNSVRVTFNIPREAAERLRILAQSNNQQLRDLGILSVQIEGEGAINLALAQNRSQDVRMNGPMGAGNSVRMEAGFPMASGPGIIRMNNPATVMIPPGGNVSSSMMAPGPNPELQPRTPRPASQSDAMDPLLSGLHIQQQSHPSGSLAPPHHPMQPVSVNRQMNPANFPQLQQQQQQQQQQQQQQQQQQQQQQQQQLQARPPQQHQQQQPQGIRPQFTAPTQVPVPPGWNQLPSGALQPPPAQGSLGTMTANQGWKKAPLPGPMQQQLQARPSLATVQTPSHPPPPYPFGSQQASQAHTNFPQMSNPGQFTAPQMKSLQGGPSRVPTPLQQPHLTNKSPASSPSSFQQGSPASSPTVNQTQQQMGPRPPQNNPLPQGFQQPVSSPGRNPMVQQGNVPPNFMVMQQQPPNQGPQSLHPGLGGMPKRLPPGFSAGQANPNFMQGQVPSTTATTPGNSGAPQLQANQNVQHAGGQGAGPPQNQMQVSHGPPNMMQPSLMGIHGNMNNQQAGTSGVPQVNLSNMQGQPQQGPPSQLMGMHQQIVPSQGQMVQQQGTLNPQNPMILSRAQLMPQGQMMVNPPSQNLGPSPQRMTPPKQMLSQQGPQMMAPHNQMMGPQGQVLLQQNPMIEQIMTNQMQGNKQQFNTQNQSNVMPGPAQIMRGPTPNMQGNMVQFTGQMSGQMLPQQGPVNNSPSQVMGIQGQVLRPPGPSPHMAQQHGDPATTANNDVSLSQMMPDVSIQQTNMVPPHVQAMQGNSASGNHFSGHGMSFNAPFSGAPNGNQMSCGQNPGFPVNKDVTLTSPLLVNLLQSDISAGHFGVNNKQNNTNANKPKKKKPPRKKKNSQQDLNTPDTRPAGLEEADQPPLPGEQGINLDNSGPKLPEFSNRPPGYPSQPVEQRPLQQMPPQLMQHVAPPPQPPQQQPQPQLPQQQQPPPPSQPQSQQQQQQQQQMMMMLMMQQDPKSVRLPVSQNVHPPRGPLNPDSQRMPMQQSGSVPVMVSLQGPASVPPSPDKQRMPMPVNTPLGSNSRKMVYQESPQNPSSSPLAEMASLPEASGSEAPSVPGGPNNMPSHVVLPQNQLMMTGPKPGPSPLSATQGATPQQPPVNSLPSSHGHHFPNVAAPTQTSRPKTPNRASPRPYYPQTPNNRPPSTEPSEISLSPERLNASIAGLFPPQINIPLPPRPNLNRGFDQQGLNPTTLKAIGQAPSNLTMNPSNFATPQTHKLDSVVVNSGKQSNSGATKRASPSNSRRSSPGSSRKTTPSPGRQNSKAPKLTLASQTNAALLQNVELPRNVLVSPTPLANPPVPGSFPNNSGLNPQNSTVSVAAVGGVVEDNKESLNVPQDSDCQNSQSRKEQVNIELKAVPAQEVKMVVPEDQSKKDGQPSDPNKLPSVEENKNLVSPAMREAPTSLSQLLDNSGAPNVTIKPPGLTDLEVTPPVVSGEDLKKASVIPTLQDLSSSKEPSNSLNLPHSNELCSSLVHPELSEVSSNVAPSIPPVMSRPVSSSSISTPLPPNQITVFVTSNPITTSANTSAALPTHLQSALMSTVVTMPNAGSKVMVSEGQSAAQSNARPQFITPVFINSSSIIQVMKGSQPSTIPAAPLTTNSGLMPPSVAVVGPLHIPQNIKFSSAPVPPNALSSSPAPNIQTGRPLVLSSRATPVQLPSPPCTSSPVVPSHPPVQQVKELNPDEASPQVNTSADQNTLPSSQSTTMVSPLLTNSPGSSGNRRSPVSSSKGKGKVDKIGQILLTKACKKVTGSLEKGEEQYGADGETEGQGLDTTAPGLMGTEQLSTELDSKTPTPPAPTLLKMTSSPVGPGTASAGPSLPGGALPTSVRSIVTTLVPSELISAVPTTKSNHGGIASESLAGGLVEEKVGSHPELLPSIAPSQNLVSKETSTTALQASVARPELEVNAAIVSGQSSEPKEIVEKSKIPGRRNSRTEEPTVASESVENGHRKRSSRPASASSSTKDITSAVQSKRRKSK
UniProt Q9UHQ1: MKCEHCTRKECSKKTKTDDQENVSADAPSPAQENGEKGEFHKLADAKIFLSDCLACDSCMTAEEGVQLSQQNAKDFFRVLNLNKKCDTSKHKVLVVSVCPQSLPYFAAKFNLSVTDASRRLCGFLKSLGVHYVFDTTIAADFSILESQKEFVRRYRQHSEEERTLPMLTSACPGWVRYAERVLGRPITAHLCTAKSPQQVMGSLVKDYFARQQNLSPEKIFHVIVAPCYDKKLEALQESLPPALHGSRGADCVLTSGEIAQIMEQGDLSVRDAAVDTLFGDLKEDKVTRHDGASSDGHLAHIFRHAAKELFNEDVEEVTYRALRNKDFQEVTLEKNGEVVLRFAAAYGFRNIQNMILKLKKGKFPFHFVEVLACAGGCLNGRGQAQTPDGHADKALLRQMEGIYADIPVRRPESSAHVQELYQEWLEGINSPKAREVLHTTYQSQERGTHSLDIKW
UniProt P61599, whole entry, looked up: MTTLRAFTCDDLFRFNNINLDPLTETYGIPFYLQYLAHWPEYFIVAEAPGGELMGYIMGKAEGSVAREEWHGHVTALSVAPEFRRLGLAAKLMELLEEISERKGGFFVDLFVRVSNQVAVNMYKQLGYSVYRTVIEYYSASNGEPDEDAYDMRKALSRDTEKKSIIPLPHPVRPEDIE
UniProt Q96HR8: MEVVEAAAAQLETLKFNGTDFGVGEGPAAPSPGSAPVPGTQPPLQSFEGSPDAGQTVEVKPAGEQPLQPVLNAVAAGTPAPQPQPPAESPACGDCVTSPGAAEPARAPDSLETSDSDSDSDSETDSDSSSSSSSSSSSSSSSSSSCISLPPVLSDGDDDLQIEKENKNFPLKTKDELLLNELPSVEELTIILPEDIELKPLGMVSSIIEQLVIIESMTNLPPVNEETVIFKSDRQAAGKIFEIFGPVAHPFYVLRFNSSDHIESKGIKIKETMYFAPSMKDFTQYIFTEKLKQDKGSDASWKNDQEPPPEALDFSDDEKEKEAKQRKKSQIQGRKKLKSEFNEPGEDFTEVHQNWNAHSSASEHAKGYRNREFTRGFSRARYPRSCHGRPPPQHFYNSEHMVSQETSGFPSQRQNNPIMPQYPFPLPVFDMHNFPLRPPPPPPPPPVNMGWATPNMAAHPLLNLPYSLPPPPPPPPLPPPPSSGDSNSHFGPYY
UniProt Q15843, whole entry, looked up: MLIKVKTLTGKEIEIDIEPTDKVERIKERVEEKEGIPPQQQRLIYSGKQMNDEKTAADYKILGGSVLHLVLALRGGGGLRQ
UniProt Q86XI2: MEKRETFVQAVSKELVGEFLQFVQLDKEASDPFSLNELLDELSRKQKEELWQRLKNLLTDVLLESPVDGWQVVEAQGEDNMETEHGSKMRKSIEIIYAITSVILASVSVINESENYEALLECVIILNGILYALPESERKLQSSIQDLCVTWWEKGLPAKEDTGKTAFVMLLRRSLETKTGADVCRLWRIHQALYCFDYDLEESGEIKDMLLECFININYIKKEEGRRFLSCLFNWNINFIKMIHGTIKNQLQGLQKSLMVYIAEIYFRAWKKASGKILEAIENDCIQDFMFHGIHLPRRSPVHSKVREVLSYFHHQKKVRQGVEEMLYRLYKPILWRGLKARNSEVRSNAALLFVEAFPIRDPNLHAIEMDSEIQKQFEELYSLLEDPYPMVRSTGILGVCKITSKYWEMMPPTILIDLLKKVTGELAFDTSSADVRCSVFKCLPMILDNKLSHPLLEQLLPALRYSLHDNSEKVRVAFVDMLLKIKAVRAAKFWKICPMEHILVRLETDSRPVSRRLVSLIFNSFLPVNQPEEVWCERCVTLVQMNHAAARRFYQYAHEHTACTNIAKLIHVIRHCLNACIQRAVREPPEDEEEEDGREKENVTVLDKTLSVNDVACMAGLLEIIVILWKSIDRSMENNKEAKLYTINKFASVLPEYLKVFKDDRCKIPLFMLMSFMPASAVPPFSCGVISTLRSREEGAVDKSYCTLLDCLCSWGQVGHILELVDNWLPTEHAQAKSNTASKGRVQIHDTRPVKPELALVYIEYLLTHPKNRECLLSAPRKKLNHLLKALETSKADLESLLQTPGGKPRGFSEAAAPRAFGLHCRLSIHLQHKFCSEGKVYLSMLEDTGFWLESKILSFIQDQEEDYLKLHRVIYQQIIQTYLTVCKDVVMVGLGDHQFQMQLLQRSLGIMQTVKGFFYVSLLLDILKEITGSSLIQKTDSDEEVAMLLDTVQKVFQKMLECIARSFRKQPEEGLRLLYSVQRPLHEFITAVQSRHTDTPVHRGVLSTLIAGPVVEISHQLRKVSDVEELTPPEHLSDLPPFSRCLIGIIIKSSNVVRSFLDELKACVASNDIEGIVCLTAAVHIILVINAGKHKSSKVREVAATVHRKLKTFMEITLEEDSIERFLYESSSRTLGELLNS

How the values were obtained:
Test in all cases: log2 fold change, soluble protein after heating vs DMSO (PISA); higher = thermal stabilisation; K562 cells, 10 uM, 30 min; active = over 0.2 and 3.5 SD of the protein, either way, in both replicates (recomputed)
[1] = compound: C#Cc1cccc(Nc2ncnc3cc(OCCOC)c(OCCOC)cc23)c1 [erlotinib]
How it was run: (§1)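 Soluble protein was quantified by TMTpro 16plex LC-MS/MS after channel sums were equalised. It was obtained as the supernatant after 21,000xg for 90 min from pooled aliquots of K562 cells (2×10^6 cells/mL, 10 μM compound, 30 min) heated for 3 min across 48°C-58°C and extracted in PBS with 0.5% NP-40 at 4°C. Thermal stability values are relative to control samples and come from duplicates. They are given as log2 fold changes.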

[2] = compound: C/C(=N\NC(=O)C1=CC(=CC=C1)S(=O)(=O)N2CCOCC2)/C3=C(C=CC(=C3)Cl)O
How it was run: as §1

[3] = compound: C1=CC(=C(C=C1Cl)C2=NC3=NC=CN=C3C(=N2)NC4=CC=NC=C4)F
How it was run: as §1

[4] = compound: C1=CC(=CC=C1C2=NC3=C(N2)C=C(C=C3)C(=O)N)OC4=CC=C(C=C4)Cl
How it was run: as §1

[5] = compound: C1=CC2=C(C=CC(=C2)/C=C\3/C(=O)NC(=NCC4=CC=CS4)S3)N=C1
How it was run: as §1

[6] = compound: C1=CC2=NC=CN=C2C=C1/C=C/3\C(=O)NC(=O)S3
How it was run: as §1

[7] = compound: C1=CC=C(C=C1)C2=NC(=C(N2)C3=CC=NC=C3)C4=CC(=C(C=C4)Cl)O
How it was run: as §1

[8] = compound: C1=CC=C2C(=C1)C3=NNC4=CC=CC(=C43)C2=O
How it was run: as §1

[9] = compound: C1CCN(C1)C(=O)NC2=CC=CC(=C2)NC3=NC=C(C(=N3)NCCC4=CN=CN4)Br
How it was run: as §1

[10] = compound: C1CN(CCC1(CC2=CC=C(C=C2)Cl)N)C3=NC=NC4=C3C=CN4
How it was run: as §1

[11] = compound: C1COCCN1CCN2C3=CC=CC=C3N=C2NC(=O)C4=CC(=CC=C4)[N+](=O)[O-] [IRAK-1-4 Inhibitor I]
How it was run: as §1

[12] = compound: C=CC(=O)N1CCC[C@@H](n2nc(-c3ccc(Oc4ccccc4)cc3)c3c(N)ncnc32)C1 [ibrutinib]
How it was run: as §1

[13] = compound: CC(=O)c1cnc2ccc(-c3cc(Cl)c(O)c(Cl)c3)nc2c1N[C@H]1CC[C@H](CN(C)C)CC1
How it was run: as §1

[14] = compound: CC(C)(C)Cn1c(N)nc2ccc(-c3[nH]c(C(C)(C)C)nc3-c3ccc(F)cc3)nc21 [ralimetinib]
How it was run: as §1

[15] = compound: CC(C)(O)CC(=O)NCCn1ccc2ncnc(Nc3ccc(Oc4cccc(C(F)(F)F)c4)c(Cl)c3)c21
How it was run: as §1

[16] = compound: CC(C)C1=C2N=C(C=C(N2N=C1)NCC3=CC=CC=C3)NCCCCCCN
How it was run: as §1

[17] = compound: CC(C)C[C@@H](C=O)NC(=O)[C@H](CC(C)C)NC(=O)[C@H](CC(C)C)NC(=O)OCc1ccccc1
How it was run: as §1

[18] = compound: CC(C)N(C[C@H]1O[C@@H](n2cnc3c(N)ncnc32)[C@H](O)[C@@H]1O)[C@H]1C[C@@H](CCc2nc3cc(C(C)(C)C)ccc3[nH]2)C1 [pinometostat]
How it was run: as §1

[19] = compound: CC1=C(C(CC(=O)N1)C2=CC=C(C=C2)C(F)(F)F)C(=O)NC3=C(C=C4C(=C3)C=NN4)F
How it was run: as §1

[20] = compound: CC1=C(C2=C(C=C1)C(=O)C3=CC=CC=C3N2CCCN)C
How it was run: as §1

Measured: log2 fold change

NEFH (UniProt P12036)
inactive: [1] -0.011 | [2] -0.087 | [3] -0.375 | [4] -0.004 | [5] -0.166 | [6] 0.093 | [7] -0.151 | [8] -0.09 | [9] 0.006 | [10] -0.127 | [11] -0.039 | [12] 0.219 | [13] 0.166 | [14] 0.283 | [15] 0.516 | [16] -0.032 | [17] 0.019 | [18] 0.25 | [19] 0.129 | [20] -0.187

NCSTN (UniProt Q92542)
inactive: [1] 0.04 | [2] -0.031 | [3] -0.02 | [4] -0.001 | [5] 0.016 | [6] 0.079 | [7] 0.019 | [8] 0.008 | [9] 0.014 | [10] 0.013 | [11] 0.022 | [12] -0.004 | [13] -0.086 | [14] -0.014 | [15] -0.014 | [16] 0.017 | [17] -0.03 | [18] -0.068 | [19] 0.002 | [20] 0.077

MYO9B (UniProt Q13459)
inactive: [1] -0.024 | [2] 0.035 | [3] -0.138 | [4] -0.013 | [5] 0.088 | [6] -0.099 | [7] 0.026 | [8] -0.058 | [9] 0.047 | [10] -0.229 | [11] -0.09 | [12] -0.026 | [13] 0.081 | [14] 0.087 | [15] 0 | [16] -0.143 | [17] 0.113 | [18] 0.224 | [19] -0.044 | [20] 0

NCOA6 (UniProt Q14686)
inactive: [1] -0.064 | [2] -0.015 | [3] -0.085 | [4] 0.123 | [5] 0.086 | [6] -0.021 | [7] 0.058 | [8] -0.005 | [9] 0.039 | [10] 0.025 | [11] -0.023 | [12] -0.088 | [13] -0.099 | [14] -0.02 | [15] -0.01 | [16] 0.061 | [17] 0.023 | [18] 0.04 | [19] -0.009 | [20] -0.186

NARF (UniProt Q9UHQ1)
inactive: [1] -0.011 | [2] 0.046 | [3] 0.059 | [4] -0.004 | [5] -0.029 | [6] 0.017 | [7] -0.005 | [8] -0.024 | [9] -0.043 | [10] 0.009 | [11] -0.005 | [12] 0.02 | [13] -0.004 | [14] -0.055 | [15] 0 | [16] 0.035 | [17] 0.049 | [18] -0.039 | [19] -0.01 | [20] -0.058

NAA20 (UniProt P61599)
inactive: [1] 0.009 | [2] 0.089 | [3] 0.002 | [4] 0.117 | [5] 0.021 | [6] -0.047 | [7] 0.085 | [8] 0.091 | [9] -0.038 | [10] 0.024 | [11] 0.014 | [12] 0.03 | [13] -0.099 | [14] -0.024 | [15] 0.016 | [16] -0.022 | [17] 0 | [18] -0.043 | [19] -0.013 | [20] 0.021

NAPRT (UniProt Q6XQN6)
inactive: [1] 0.014 | [2] 0.022 | [3] 0.029 | [4] -0.017 | [5] 0.014 | [6] 0.018 | [7] 0.005 | [8] -0.019 | [9] 0.012 | [10] 0.041 | [11] 0.009 | [12] -0.013 | [13] 0.003 | [14] -0.039 | [15] -0.025 | [16] 0.024 | [17] -0.05 | [18] -0.035 | [19] 0.028 | [20] 0.015

NAF1 (UniProt Q96HR8)
inactive: [1] -0.067 | [2] 0.031 | [3] -0.091 | [4] 0.003 | [5] -0.038 | [6] 0.003 | [7] 0.025 | [8] 0.04 | [9] -0.149 | [10] -0.056 | [11] -0.005 | [12] 0.015 | [13] 0.078 | [14] 0.043 | [15] 0.131 | [16] 0.031 | [17] 0.024 | [18] 0.029 | [19] -0.046 | [20] 0.093

NAA35 (UniProt Q5VZE5)
inactive: [1] 0.018 | [2] 0.043 | [3] 0.078 | [4] 0.077 | [5] 0.025 | [6] 0 | [7] 0.027 | [8] 0.035 | [9] 0 | [10] 0.007 | [11] 0.027 | [12] 0.008 | [13] -0.065 | [14] 0.019 | [15] -0.009 | [16] -0.049 | [17] -0.012 | [18] 0.039 | [19] 0.019 | [20] 0.068

NEDD8 (UniProt Q15843)
inactive: [1] -0.002 | [2] -0.026 | [3] 0.145 | [4] -0.001 | [5] 0.121 | [6] 0.07 | [7] 0.076 | [8] 0.089 | [9] -0.04 | [10] -0.024 | [11] 0.065 | [12] 0.023 | [13] 0 | [14] -0.056 | [15] -0.113 | [16] 0.073 | [17] -0.052 | [18] -0.039 | [19] 0.026 | [20] 0.091

Two successive entries already listed:
NAA20 (UniProt P61599)
inactive: [1] 0.009 | [2] 0.089 | [3] 0.002 | [4] 0.117 | [5] 0.021 | [6] -0.047 | [7] 0.085 | [8] 0.091 | [9] -0.038 | [10] 0.024 | [11] 0.014 | [12] 0.03 | [13] -0.099 | [14] -0.024 | [15] 0.016 | [16] -0.022 | [17] 0 | [18] -0.043 | [19] -0.013 | [20] 0.021

NAPRT (UniProt Q6XQN6)
inactive: [1] 0.014 | [2] 0.022 | [3] 0.029 | [4] -0.017 | [5] 0.014 | [6] 0.018 | [7] 0.005 | [8] -0.019 | [9] 0.012 | [10] 0.041 | [11] 0.009 | [12] -0.013 | [13] 0.003 | [14] -0.039 | [15] -0.025 | [16] 0.024 | [17] -0.05 | [18] -0.035 | [19] 0.028 | [20] 0.015

(cont.)

NAA50 (UniProt Q9GZZ1)
inactive: [1] 0.037 | [2] 0.06 | [3] 0.043 | [4] -0.012 | [5] -0.02 | [6] -0.144 | [7] 0.053 | [8] -0.005 | [9] -0.054 | [10] 0.037 | [11] 0.024 | [12] 0.02 | [13] -0.029 | [14] -0.034 | [15] -0.013 | [16] -0.011 | [17] -0.048 | [18] -0.091 | [19] -0.026 | [20] -0.005

NAA25 (UniProt Q14CX7)
inactive: [1] -0.017 | [2] 0.091 | [3] 0.039 | [4] 0.065 | [5] 0.03 | [6] -0.041 | [7] 0.053 | [8] 0.048 | [9] -0.004 | [10] 0.068 | [11] -0.019 | [12] 0.027 | [13] -0.076 | [14] -0.001 | [15] -0.033 | [16] -0.05 | [17] -0.015 | [18] -0.013 | [19] 0.015 | [20] 0.018

NCAPD3 (UniProt P42695)
inactive: [1] 0.022 | [2] -0.024 | [3] -0.039 | [4] -0.048 | [5] 0.009 | [6] -0.005 | [7] -0.028 | [8] -0.081 | [9] -0.024 | [10] -0.043 | [11] -0.041 | [12] -0.056 | [13] -0.038 | [14] -0.028 | [15] -0.065 | [16] -0.013 | [17] 0.039 | [18] 0.059 | [19] -0.019 | [20] 0.11

NECAP1 (UniProt Q8NC96)
inactive: [1] 0.034 | [2] 0.047 | [3] 0.046 | [4] 0.009 | [5] 0.067 | [6] 0.029 | [7] -0.029 | [8] -0.081 | [9] -0.027 | [10] 0.002 | [11] 0.006 | [12] 0.005 | [13] -0.082 | [14] 0.019 | [15] -0.013 | [16] 0.02 | [17] 0.009 | [18] -0.034 | [19] 0.02 | [20] -0.013

NCAPG2 isoform 2 (UniProt Q86XI2)
inactive: [1] 0.011 | [2] 0.086 | [3] -0.156 | [4] -0.225 | [5] 0.037 | [6] 0.06 | [7] -0.087 | [8] -0.044 | [9] -0.087 | [10] -0.295 | [11] -0.096 | [12] -0.006 | [13] 0.038 | [14] 0.028 | [15] 0.014 | [16] -0.137 | [17] 0.198 | [18] -0.132 | [19] 0.128 | [20] 0.126

NDUFAF7 (UniProt Q7L592)
inactive: [1] 0.055 | [2] -0.001 | [3] 0.044 | [4] 0.013 | [5] 0.307 | [6] -0.075 | [7] 0.122 | [8] 0.073 | [9] -0.064 | [10] 0.014 | [11] 0.065 | [12] 0.038 | [13] -0.129 | [14] 0.111 | [15] -0.15 | [16] -0.216 | [17] 0.051 | [18] -0.049 | [19] -0.013 | [20] 0.093
